Experimental data taken from article PMC9998969.
No constants are given. Whether binding was seen depends on the method and setting. Binding seen in cells or lysates may run through a third protein. A result given as binding can be weak or reduced; the word gives no strength.

Amino acid sequences for entries named in this document (tags omitted). A change or cut given only in a name is not applied to a line headed by its entry. Residues count along the entry.
UniProt Q9BSJ8: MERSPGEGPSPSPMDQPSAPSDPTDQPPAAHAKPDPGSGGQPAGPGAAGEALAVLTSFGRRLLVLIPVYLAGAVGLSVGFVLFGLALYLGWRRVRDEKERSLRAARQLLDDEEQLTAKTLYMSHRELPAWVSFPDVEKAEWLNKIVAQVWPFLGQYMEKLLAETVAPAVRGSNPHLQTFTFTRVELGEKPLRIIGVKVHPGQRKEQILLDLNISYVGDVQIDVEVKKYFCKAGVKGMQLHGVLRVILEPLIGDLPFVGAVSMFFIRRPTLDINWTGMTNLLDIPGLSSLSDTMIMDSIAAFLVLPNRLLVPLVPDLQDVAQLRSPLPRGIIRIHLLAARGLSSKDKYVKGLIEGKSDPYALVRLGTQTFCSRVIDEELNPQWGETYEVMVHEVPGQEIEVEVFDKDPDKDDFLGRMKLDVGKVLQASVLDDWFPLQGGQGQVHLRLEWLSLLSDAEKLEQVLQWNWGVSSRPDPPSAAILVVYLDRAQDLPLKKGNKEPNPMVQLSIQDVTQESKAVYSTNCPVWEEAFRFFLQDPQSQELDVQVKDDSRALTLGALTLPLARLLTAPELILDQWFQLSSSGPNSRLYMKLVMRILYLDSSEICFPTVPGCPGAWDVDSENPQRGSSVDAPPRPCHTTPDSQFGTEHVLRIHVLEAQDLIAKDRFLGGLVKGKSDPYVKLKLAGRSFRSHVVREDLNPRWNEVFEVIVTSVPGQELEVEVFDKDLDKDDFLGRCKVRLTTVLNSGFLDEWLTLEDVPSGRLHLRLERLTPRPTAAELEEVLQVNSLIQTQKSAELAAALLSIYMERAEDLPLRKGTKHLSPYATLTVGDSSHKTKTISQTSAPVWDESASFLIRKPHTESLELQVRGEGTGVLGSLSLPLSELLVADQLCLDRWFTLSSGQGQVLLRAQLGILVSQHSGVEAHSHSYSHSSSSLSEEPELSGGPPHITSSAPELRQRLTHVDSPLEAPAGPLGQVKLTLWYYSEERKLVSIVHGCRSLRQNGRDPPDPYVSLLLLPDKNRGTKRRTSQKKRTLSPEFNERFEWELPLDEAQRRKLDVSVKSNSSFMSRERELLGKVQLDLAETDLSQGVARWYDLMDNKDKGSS
UniProt Q9NZJ5, residues 30-1116: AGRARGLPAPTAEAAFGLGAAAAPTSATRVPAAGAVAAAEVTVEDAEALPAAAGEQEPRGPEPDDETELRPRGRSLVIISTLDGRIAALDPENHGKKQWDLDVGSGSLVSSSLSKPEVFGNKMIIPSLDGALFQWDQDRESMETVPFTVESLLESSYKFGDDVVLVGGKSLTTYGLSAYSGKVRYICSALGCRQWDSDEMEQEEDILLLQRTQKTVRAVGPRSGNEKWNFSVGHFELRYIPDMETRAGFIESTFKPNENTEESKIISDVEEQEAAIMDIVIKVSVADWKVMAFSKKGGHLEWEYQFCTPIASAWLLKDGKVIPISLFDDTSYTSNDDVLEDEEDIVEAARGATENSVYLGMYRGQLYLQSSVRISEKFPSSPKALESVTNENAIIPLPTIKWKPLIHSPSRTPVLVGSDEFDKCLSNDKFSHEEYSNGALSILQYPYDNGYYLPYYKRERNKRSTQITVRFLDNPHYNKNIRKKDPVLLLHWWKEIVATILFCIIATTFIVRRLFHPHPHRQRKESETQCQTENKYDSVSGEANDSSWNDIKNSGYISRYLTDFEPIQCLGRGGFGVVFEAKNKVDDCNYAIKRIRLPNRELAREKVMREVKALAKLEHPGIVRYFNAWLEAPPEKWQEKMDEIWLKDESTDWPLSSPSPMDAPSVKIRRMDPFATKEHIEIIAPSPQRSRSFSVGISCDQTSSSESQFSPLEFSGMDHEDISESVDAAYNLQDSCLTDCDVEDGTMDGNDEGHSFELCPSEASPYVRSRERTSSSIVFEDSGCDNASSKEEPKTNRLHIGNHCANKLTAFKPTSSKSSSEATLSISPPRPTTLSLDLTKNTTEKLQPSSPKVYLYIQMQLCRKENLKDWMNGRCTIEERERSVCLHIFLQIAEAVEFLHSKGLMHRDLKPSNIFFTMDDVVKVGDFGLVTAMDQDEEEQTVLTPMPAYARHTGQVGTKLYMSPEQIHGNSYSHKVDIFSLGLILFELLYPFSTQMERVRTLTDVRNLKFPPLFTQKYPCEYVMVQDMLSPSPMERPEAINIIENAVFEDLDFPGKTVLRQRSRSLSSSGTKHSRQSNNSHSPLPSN

Key:
eGFP-E-Syt1-ΔSMP [1] = biological target: eGFP-E-Syt1-ΔSMP (UniProt Q9BSJ8); assay: co-IP; eGFP pull-down from isolated crude mitochondrial (mito crude) fractions of E-Syt1/2 DKO HeLa cells transiently transfected with eGFP or eGFP-tagged E-Syt1 constructs; blot for endogenous PERK
eGFP-E-Syt1-ΔSMP [2] = biological target: eGFP-E-Syt1-ΔSMP (UniProt Q9BSJ8); assay: co-IP; GFP pull-down with conjugated GFP antibody beads from total lysates of transfected HEK293-T cells; lysis in 1% CHAPS, 100 mM KCl, 50 mM Tris HCl, 150 mM NaCl; 500 ug protein, overnight at 4°C; blot for myc, PERK, GFP, CNX

binding (eGFP-E-Syt1-ΔSMP [1]): binds
binding (eGFP-E-Syt1-ΔSMP [2]): binds
Substance: endogenous PERK (from UniProt Q9NZJ5 30-1116)
